From article PMC12040169 (PLOS Biology, 2025)
The other results are listed elsewhere or left out.

The compounds below were run on T1, CTL2-GFP (C. trachomatis L2/434/Bu, GFP-expressing). Conditions: bulk GFP, single well; 28.5 h, 10 µM; inhibitor.
T1 construct: L2/434/Bu, GFP-expressing
Set-up: species or system HeLa; Intracellular C. trachomatis growth in HeLa cells, bulk GFP fluorescence relative to DMSO

| SMILES | % of control remaining |
| --- | --- |
| O=C(O)COc1ccccc1/C=N/n1c(S)nnc1-c1ccncc1 [CBK265253] | 100% |
| Cc1ncc([N+](=O)[O-])n1CCSc1nnc(SCc2ccccc2)s1 [CBK264751] | 100% |
| COC(=O)c1ccc2c(c1)C(=O)N(c1ccc(C(=O)OCC(C)C)cc1)C2=O [CBK156802] | 117.845% |
| O=C1NN=C(c2ccccc2)CC1c1c[nH]c2ccccc12 (stereo not drawn) [CBK288235] | 110.18% |
| O=C(NC1Cc2ccccc2C1)c1nccc2ccccc12 [CBK200356] | 101.951% |
| Cn1c(SCC(=O)c2ccc([N+](=O)[O-])cc2)nnc1-c1ccc(N)cc1 [CBK264843] | 109.842% |
| CC1CC(=O)C2=C(C1)NN=C(c1cccc(C(F)(F)F)c1)C2 (stereo not drawn) [CBK020138] | 125.323% |
| COc1ccc(N(CC(=O)Nc2cccnc2)S(=O)(=O)c2ccc(C)cc2)cc1 [CBK264033] | 110.558% |
| COc1ccc(C(=O)N2CCCN(Cc3ccc(C#N)cc3)CC2)cc1 [CBK305374] | 116.564% |
| CN(Cc1nccn1C)c1nccc(N2CCN[C@H]3CS(=O)(=O)C[C@H]32)n1 [CBK307394] | 131.079% |
| Cn1c(=O)cc(NCCCCCC(=O)O)[nH]c1=O [CBK286574] | 116.062% |
| Cc1cccc(NC(=O)CN2C(=O)S/C(=C\c3cc(C)n(-c4ccc(N(C)C)cc4)c3C)C2=O)c1 [CBK264586] | 123.659% |
| COCCOc1ccc(C(=O)N2CCN(c3ccccc3)CC2)cc1 [CBK304626] | 126.178% |
| CC(=O)NCCOc1nc(N(C)C)nc(N2CCOCC2)n1 [CBK266651] | 176.315% |
| Cc1[nH]c2ccccc2c1CCNC(=O)N(Cc1cnn(C)c1)C1CC1 [CBK306661] | 99.3334% |
| CCOc1ccc(S(=O)(=O)Nc2ccc(O)c(C(=O)O)c2)cc1 [CBK299810] | 102.657% |
| COC(=O)c1sc(NC(=S)Nc2ccn(C)n2)c(C(=O)OC)c1C [CBK267078] | 186.71% |
| CCOc1ccc(NC(=O)C(C)Sc2nc3ccc(F)cc3[nH]2)cc1 (stereo not drawn) [CBK266047] | 98.7094% |
| COc1ccc2c(c1)CC(=O)NC21CCN(Cc2c(F)cccc2F)CC1 [CBK039835] | 106.205% |
| O=C(O)CCC(C(=O)O)N1C(=O)c2cc(Cl)c(Cl)cc2C1=O (stereo not drawn) [CBK264156] | 118.886% |
| C[C@H]1[C@@H]2[C@@H](O)C([C@H](C)C(=O)N3CCCC3)CC[C@@]2(C)CC[C@@H]1NC(=O)c1ccccc1 (stereo partly drawn) [CBK289441] | 123.116% |
| Cc1cc2cccc(NC(=O)NCc3cncn3CC(C)C)c2o1 [CBK306715] | 125.687% |
| Cc1nc(C2CCN(C(=O)CC3CCCC3)CC2)ncc1C(=O)Nc1ccc(Cl)cc1 [CBK285847] | 115.119% |
| CC(=O)Nc1nc2c3ccccc3n(C(C)=O)c2s1 [CBK011360] | 100.086% |
| O=C(/C=C/c1ccc2c(c1)OCO2)NCCSc1ccccn1 [CBK264012] | 123.738% |
| Cc1nonc1-c1csc(CC(C)n2cc(Cl)cn2)n1 (stereo not drawn) [CBK304704] | 140.948% |

4 compounds out of the list, sorted by count of non-hydrogen atoms, largest number first.

| SMILES | % of control remaining |
| --- | --- |
| COc1ccc2c(c1)CC(=O)NC21CCN(Cc2c(F)cccc2F)CC1 [CBK039835] | 106.205% |
| Cc1[nH]c2ccccc2c1CCNC(=O)N(Cc1cnn(C)c1)C1CC1 [CBK306661] | 99.3334% |
| COCCOc1ccc(C(=O)N2CCN(c3ccccc3)CC2)cc1 [CBK304626] | 126.178% |
| O=C(/C=C/c1ccc2c(c1)OCO2)NCCSc1ccccn1 [CBK264012] | 123.738% |

Going on with the list.

| SMILES | % of control remaining |
| --- | --- |
| N#CC1CCC(CNC(=O)c2sc3ccccc3c2Cl)CC1 (stereo not drawn) [CBK010864] | 113.643% |
| c1ccc(CCNc2cc(-c3ccsc3)ncn2)nc1 [CBK036963] | 177.39% |
| O=C1CCC(=O)N1CCOc1nccnc1OC1CCN(CCOc2ccccc2)CC1 [CBK084354] | 96.6958% |
| Cc1cnc(CNC(=O)N2CCN(CCN3CCOCC3)CC2)cn1 [CBK155673] | 101.127% |
| CC(C)SCC(=O)Nc1ccc(Br)cc1 [CBK057618] | 101.591% |
| CC(C)[C@H]1CN(Cc2ccco2)CCN1C(=O)c1cscn1 [CBK285490] | 134.784% |
| O=C(N[C@H]1CCN2C(=O)c3cc(-c4cccs4)ccc3NC(=O)[C@H]12)c1cnccn1 [CBK289337] | 84.137% |
| O=C(Nc1nnc(-c2ccc3c(c2)OCCO3)o1)c1cccc(F)c1 [CBK287402] | 167.756% |
| CC(C)(C)OC(=O)Nc1ccc2c(ccn2CCN2CCOCC2)c1 [CBK161767] | 89.2403% |
| CC1=NN(c2nc(-c3cccc([N+](=O)[O-])c3)cs2)C(=O)C1/N=N/c1ccc(C)c(Br)c1 (stereo not drawn) [CBK262430] | 100% |
| O=C(O)CCSc1nc(-c2ccccc2)cc(=O)[nH]1 [CBK287076] | 104.868% |
| CCn1cc(CN(CCN(C)C)Cc2cccs2)c(C)n1 [CBK283037] | 115.917% |
| CC(C)C(=O)N1CCCC1c1cc2n(n1)[C@@H](C(F)(F)F)C[C@@H](C)N2 (stereo partly drawn) [CBK282966] | 97.2655% |
| Cc1cc2ncc3c(n2n1)CC1CCC3N1C(=O)c1cccs1 (stereo not drawn) [CBK284415] | 152.859% |
| O=C(c1cccc(F)c1)N1CCN(Cc2ccccn2)CC1 [CBK263023] | 115.353% |
| O=C(c1ccc2nc[nH]c2c1)N1Cc2ccccc2C1 [CBK200322] | 104.819% |
| O=C1N=C(NC2CCCCC2)SC1Cc1nc2ccccc2o1 (stereo not drawn) [CBK067970] | 121.252% |
| CCOc1ccc(S(=O)(=O)Nc2ccc(C(=O)O)cc2)cc1 [CBK287171] | 127.838% |
| O=C(c1c(F)cccc1F)N1CCN(c2ncccn2)CC1 [CBK144517] | 105.402% |
| O=C(O)C1CCCN1S(=O)(=O)c1ccc2[nH]c(=O)c(=O)[nH]c2c1 (stereo not drawn) [CBK266971] | 166.806% |
| Cn1c(/C=C/C=C/CN2CCN(Cc3ccccc3)CC2)nc2ccc([N+](=O)[O-])cc21 [CBK268281] | 122.268% |
| COc1ccc(C(=O)Nc2cc(C)nn2-c2nc3ccccc3s2)cc1 [CBK287841] | 127.087% |
| Cc1ccc2nc(N3CCCC(O)C3)c(CN3CCN(C)CC3)cc2c1 (stereo not drawn) [CBK307710] | 87.1928% |
| CCCNc1nccnc1-c1cccc(Cl)c1Cl [CBK088892] | 173.229% |
| COC(=O)c1ccc2c(=O)n(CC3CCCO3)c(SC)nc2c1 (stereo not drawn) [CBK304535] | 89.673% |
| COc1ccc(C2CCCC(N(CCN(C)C)C(=O)Nc3ccc(F)c(F)c3)C2)cc1OC (stereo not drawn) [CBK059339C] | 114.267% |

Some of the entries so far, as tab-separated lines.
SMILES	% of control remaining
O=C1N=C(NC2CCCCC2)SC1Cc1nc2ccccc2o1 (stereo not drawn) [CBK067970]	121.252%
COC(=O)c1ccc2c(=O)n(CC3CCCO3)c(SC)nc2c1 (stereo not drawn) [CBK304535]	89.673%

Following part

| SMILES | % of control remaining |
| --- | --- |
| CCNc1nc(Sc2ccc(Cl)cc2)cc(C(F)(F)F)n1 [CBK003349] | 115.42% |
| O=C1N=C(NC2CCCCCC2)S[C@@H]1CC1CCCCC1 [CBK070723] | 104.877% |
| Cc1ccc(CN(Cc2nccn2C)C2CC(C)(C)NC(C)(C)C2)o1 [CBK283190] | 84.1197% |
| O=C(Nc1cc2cccnc2nc1Cl)c1ccc(C(F)(F)F)cc1[N+](=O)[O-] [CBK091348] | 114.192% |
| Cc1c(C(=O)N2CCN(C3CC3)CC2)nnn1Cc1ccc(F)cc1F [CBK305507] | 123.351% |
| O=C(O)C1C2CCC(O2)C1C(=O)Nc1cnn(Cc2ccccc2)c1 (stereo not drawn) [CBK286849] | 103.204% |
| CC(C)(C)c1ccc(-c2cnc(N)c(-c3ccc(C(=O)N4CCOCC4)cc3)n2)cc1 [CBK084543A] | 71.4546% |
| CC(C)N1CCC2(C/C=C/CNC(=O)c3ccccc3OCCNC2=O)CC1 [CBK292094] | 141.6% |
| OCCN1CCN(C(c2cccs2)c2ccc3cccnc3c2O)CC1 (stereo not drawn) [CBK296964] | 79.191% |
| O=C(O)CCc1nc(-c2ccc3[nH]ccc3c2)no1 [CBK287070] | 101.097% |
| CN1C(=O)c2ccccc2C(=O)[C@@]2(C)CN(C(=O)C3CCCC3)C[C@@H]12 [CBK284570] | 155.501% |
| CCOC(=O)c1c(NC(=O)C2CCCCC2C(=O)O)sc(C)c1C (stereo not drawn) [CBK265469] | 129.489% |
| O=C(O)c1cccc(C(=O)Nc2cccc(NC(=O)C3CCCO3)c2)c1 (stereo not drawn) [CBK268566] | 130.218% |
| CCOC(=O)C1CCCN(Cc2ccc3c(c2)OCO3)C1 (stereo not drawn) [CBK074569] | 102.583% |
| CC(=O)NCc1ccc(-c2ccc(C(=O)NC3(c4ccccc4)CCCC3)c(C)n2)cc1 [CBK285891] | 108.226% |
| Clc1ccccc1C1N(Cc2ccccc2)CCN1Cc1ccccc1 [CBK261217] | 112.185% |
| O=C(CCS(=O)(=O)c1ccccc1)Nc1c(F)cc(F)cc1OC1CCNCC1 [CBK050226T] | 128.676% |
| COc1ccccc1NCc1c(O)c(Br)cc2oc3c(c12)CCCC3 [CBK160398] | 55.2808% |
| FC(F)(F)CCN1CCC2(CC1)NCCc1c2[nH]c2ccc(Cl)cc12 [CBK039331] | 38.4919% |
| Sc1nnc(COc2ccccc2)n1/N=C/c1cccnc1 [CBK265308] | 128.502% |
| C=CCNC(=O)N[C@H]1[C@H](O)[C@@H](N2CCCC2)[C@@H]2OC[C@H]1O2 [CBK288829] | 110.607% |
| CCCCC(=O)N(C)c1c(CC)nc2c(OCc3ccc(C#N)cc3)cccn12 [CBK147779] | 121.76% |
| COc1ccc(N2CCN(CC(O)c3c[nH]c4cc(OC)ccc34)CC2)cc1 (stereo not drawn) [CBK286355] | 110.837% |
| O=S(=O)(Oc1ccccc1)c1ccc2c(c1)Cc1cc(S(=O)(=O)Oc3ccccc3)ccc1-2 [CBK231928] | 103.826% |
| CCC(CC)Oc1ccc(C2(C)NC(=O)NC2=O)cc1 (stereo not drawn) [CBK288409] | 112.588% |
| CC1CCC(C(N)=O)CN1C(=O)c1csc(Br)c1 (stereo not drawn) [CBK305812] | 155.116% |
